Reference: the supplement of paper PMC6411743
± gives the standard deviation of the averaged measurements. Only a part is listed here, and it is no random draw.

Sequences of proteins named here, by UniProt entry; tags and fusion partners are left off. A change or cut given only in a name is not applied to a line headed by its entry.
UniProt Q9Y692: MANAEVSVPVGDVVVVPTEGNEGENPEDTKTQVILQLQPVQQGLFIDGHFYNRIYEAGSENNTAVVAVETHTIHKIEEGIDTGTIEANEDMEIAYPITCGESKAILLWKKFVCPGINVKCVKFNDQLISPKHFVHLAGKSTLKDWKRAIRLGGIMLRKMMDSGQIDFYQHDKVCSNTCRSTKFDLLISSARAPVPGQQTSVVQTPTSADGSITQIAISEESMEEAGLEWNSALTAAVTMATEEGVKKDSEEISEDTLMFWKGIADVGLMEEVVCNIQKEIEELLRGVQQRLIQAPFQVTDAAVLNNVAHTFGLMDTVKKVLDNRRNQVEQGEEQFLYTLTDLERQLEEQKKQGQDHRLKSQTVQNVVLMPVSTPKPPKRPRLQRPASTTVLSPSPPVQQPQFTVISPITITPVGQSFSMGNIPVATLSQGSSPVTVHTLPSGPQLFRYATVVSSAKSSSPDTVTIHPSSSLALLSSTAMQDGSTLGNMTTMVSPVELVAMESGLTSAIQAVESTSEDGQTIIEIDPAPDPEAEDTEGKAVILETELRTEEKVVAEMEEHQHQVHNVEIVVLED
UniProt Q9Y5Q9: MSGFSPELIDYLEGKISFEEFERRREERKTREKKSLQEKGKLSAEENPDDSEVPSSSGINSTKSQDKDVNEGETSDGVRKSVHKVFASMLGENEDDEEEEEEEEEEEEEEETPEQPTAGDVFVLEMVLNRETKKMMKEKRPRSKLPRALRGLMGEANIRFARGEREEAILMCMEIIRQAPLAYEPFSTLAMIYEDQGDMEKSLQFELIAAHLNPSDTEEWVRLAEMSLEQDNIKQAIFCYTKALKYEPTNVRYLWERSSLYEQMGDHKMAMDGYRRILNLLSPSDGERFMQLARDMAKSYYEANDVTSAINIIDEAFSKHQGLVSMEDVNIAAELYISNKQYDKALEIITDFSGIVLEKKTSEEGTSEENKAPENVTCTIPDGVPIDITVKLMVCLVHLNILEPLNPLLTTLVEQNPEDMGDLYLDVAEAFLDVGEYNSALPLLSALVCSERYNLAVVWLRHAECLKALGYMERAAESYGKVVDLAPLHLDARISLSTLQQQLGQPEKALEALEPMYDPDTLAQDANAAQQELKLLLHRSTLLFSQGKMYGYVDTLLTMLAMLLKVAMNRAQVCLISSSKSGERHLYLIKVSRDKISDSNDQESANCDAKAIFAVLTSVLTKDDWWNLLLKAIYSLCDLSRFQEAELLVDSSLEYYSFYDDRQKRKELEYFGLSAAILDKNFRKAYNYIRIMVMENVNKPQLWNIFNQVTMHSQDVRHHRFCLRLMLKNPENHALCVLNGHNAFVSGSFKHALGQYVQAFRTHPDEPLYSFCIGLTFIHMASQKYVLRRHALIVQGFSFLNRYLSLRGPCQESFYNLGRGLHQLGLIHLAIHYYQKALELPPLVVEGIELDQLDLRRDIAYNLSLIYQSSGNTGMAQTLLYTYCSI
UniProt Q9Y6J0: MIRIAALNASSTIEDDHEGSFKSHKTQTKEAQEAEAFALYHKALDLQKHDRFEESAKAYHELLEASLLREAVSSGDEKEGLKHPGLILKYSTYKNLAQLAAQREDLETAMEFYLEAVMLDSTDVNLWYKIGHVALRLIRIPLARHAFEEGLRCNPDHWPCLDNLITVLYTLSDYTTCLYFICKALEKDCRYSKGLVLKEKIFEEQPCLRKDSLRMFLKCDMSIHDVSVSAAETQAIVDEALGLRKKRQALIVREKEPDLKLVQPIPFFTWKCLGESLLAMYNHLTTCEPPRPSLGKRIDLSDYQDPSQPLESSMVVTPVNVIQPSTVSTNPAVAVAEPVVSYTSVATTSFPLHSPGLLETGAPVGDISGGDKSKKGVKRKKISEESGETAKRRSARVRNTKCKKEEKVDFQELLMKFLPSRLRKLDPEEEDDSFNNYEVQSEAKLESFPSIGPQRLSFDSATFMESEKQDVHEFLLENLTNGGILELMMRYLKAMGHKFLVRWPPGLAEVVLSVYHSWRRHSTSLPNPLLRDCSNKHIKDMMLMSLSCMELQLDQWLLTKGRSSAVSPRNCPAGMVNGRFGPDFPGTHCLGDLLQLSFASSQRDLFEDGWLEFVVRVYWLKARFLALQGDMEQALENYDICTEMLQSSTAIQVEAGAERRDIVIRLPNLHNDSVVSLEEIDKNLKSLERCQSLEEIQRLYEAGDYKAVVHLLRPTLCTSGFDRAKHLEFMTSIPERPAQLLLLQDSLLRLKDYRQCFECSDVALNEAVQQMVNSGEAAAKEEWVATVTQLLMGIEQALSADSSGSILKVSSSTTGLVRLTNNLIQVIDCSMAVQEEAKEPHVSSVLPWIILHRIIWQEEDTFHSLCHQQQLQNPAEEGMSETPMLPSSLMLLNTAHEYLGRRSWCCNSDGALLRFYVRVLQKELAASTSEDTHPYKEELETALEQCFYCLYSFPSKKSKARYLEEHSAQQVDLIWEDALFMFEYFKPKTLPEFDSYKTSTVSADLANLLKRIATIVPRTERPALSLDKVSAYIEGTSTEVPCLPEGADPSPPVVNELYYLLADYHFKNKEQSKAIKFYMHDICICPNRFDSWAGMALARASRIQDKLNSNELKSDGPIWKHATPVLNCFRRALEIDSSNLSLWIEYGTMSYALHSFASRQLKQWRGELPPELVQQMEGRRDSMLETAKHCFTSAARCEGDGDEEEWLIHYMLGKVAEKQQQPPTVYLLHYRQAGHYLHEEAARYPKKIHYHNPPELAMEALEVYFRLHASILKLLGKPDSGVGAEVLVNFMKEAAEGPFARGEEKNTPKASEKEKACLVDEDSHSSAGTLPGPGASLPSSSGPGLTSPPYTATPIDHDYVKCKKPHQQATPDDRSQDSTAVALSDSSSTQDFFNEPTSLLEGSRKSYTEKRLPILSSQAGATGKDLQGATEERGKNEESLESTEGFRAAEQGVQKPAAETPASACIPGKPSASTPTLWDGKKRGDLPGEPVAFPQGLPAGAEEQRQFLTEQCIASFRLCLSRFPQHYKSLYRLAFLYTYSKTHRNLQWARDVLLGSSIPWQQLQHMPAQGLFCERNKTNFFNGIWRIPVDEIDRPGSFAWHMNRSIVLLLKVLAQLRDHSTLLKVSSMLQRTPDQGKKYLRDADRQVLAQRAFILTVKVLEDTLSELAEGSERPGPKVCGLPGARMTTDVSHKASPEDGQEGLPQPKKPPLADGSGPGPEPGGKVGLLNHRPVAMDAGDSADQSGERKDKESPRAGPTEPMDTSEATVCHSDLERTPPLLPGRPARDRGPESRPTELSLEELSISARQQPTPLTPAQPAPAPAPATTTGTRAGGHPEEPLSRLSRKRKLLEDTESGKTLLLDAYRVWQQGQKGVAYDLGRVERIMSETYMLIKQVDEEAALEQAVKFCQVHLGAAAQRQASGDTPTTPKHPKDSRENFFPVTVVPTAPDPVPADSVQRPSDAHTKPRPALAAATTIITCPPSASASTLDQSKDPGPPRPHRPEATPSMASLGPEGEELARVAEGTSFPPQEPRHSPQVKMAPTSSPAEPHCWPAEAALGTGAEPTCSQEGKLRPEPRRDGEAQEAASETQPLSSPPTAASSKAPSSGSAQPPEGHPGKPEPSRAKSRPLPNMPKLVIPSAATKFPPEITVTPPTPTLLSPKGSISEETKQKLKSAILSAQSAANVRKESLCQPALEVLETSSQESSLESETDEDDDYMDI
UniProt Q9Y4B5: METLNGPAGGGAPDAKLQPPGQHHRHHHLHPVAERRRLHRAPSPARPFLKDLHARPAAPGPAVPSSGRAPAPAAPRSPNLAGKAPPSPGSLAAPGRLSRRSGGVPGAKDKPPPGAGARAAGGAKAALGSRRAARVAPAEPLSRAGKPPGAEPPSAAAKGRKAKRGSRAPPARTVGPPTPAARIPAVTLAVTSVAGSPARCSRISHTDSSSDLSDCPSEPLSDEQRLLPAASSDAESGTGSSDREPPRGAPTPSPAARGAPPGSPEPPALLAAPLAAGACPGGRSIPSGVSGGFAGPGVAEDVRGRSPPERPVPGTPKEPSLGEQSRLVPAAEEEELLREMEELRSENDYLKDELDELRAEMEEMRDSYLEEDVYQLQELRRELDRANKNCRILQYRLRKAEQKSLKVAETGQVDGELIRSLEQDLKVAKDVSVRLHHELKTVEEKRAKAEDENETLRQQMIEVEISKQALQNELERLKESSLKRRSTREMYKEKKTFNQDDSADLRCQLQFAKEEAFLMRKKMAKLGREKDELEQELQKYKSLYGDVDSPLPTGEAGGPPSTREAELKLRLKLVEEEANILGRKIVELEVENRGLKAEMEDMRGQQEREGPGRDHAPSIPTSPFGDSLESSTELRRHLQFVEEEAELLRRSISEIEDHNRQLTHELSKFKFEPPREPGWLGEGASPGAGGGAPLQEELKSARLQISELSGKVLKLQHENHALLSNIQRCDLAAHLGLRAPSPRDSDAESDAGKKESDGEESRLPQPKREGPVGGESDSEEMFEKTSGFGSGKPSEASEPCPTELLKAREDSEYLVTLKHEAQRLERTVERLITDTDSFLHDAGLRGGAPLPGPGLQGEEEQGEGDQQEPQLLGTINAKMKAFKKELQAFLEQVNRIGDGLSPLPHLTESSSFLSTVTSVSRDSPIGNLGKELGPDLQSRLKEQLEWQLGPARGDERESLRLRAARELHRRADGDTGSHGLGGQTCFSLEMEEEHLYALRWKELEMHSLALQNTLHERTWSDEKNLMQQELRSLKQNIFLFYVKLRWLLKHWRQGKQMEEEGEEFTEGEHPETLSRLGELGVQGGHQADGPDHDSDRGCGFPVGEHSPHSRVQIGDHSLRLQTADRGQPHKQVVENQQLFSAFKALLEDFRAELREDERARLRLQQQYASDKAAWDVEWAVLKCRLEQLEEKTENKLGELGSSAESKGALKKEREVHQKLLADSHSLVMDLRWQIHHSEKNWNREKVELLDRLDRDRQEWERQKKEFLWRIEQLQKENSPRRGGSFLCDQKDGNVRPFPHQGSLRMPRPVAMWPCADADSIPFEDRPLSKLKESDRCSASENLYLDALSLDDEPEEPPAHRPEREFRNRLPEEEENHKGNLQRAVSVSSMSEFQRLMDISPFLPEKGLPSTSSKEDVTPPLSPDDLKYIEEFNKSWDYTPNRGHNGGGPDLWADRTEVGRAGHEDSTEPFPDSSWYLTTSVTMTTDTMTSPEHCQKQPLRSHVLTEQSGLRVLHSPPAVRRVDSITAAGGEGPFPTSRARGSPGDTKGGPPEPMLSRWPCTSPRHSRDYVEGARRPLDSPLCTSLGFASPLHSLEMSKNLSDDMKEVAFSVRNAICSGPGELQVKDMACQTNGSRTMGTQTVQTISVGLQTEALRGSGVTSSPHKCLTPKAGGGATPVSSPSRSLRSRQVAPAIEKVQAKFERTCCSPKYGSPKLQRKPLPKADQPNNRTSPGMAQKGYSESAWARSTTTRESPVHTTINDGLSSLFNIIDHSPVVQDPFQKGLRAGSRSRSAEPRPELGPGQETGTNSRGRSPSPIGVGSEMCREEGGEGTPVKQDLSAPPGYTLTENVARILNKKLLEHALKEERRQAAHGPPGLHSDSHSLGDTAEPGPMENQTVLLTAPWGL
UniProt Q9Y5Z4: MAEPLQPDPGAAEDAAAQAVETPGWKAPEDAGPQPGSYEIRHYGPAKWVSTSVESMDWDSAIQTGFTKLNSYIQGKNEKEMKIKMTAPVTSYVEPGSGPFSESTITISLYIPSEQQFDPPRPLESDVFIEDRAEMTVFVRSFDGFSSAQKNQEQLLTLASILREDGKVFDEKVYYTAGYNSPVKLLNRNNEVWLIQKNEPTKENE
UniProt Q9Y5R8, whole entry: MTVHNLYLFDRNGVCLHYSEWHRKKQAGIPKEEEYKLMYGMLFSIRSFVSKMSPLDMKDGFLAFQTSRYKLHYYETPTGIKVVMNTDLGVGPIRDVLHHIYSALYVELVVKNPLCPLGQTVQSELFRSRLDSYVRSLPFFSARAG
UniProt Q9Y696: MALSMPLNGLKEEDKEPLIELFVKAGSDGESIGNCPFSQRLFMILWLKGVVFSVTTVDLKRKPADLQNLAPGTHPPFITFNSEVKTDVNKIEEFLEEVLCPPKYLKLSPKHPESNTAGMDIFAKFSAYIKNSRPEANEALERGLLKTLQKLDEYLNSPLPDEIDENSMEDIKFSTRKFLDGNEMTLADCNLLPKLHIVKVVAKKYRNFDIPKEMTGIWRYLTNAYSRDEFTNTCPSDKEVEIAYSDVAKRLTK
UniProt Q9Y617: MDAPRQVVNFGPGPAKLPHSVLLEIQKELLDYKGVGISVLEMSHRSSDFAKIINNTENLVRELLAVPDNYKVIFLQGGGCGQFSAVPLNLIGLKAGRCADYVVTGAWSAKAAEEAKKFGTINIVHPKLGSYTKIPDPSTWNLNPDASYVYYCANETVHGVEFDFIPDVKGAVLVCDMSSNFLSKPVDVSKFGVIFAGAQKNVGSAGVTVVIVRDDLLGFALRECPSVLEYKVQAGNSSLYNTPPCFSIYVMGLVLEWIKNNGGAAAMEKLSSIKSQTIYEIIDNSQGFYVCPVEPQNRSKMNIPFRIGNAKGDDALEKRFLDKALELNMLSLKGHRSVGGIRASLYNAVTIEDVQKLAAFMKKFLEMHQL

Compound: Nc1ncnc2c1ncn2[C@@H]1O[C@H](COP(=O)(O)OP(=O)(O)NP(=O)(O)O)[C@@H](O)[C@H]1O [adenylyl imidodiphosphate]
Experiment: NP40-soluble protein abundance relative to vehicle (solubility fold change) (ratio); higher = more soluble protein in presence of AMP-PNP
Outline: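 Across three independent experiments, values are fold changes against the detergent-processed vehicle for each replicate, based on vsn-normalised intensities. The samples were Jurkat crude lysate treated with eight concentrations (0.1 to 10 mM) for 10 min at room temperature and then 3 min at 37 °C. Lysate was solubilised with 0.8% NP40 and benzonase, ultracentrifuged, and the supernatant analysed by TMT-labelled LC-MS/MS.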

Row | Target | NP40-soluble protein abundance (concentration: 1mM) | NP40-soluble protein abundance (concentration: 2mM) | NP40-soluble protein abundance (concentration: 4mM) | NP40-soluble protein abundance (concentration: 6mM) | NP40-soluble protein abundance (concentration: 8mM) | NP40-soluble protein abundance (concentration: 10mM)
1 | UniProt Q9Y692 and related entries | 0.962 ± 0.018 | 0.9636 ± 0.0022 | 0.97 ± 0.021 | 0.9437 ± 0.0084 | 0.961 ± 0.027 | 0.977 ± 0.0022
2 | RNF114 (UniProt Q9Y508) | 1.034 ± 0.0076 | 0.993 ± 0.021 | 1.03 ± 0.019 | 1.024 ± 0.0039 | 1.04 ± 0.018 | 1 ± 0.013
3 | UniProt Q9Y6Q9 and related entries | 0.998 ± 0.015 | 1.06 ± 0.063 | 1.02 ± 0.022 | 0.985 ± 0.014 | 0.985 ± 0.024 | 1.02 ± 0.043
4 | SEC23IP (UniProt Q9Y6Y8) | 1.02 ± 0.021 | 0.989 ± 0.028 | 0.9881 ± 0.0077 | 0.965 ± 0.027 | 0.961 ± 0.037 | 0.951 ± 0.027
5 | UniProt V9HW75 | 1.129 ± 0.011 | 1.26 ± 0.11 | 1.19 ± 0.043 | 1.17 ± 0.023 | 1.19 ± 0.013 | 1.15 ± 0.063
6 | UniProt Q9Y4B6 and related entries | 0.989 ± 0.05 | 0.971 ± 0.074 | 1 ± 0.073 | 0.955 ± 0.062 | 0.964 ± 0.069 | 0.97 ± 0.09
7 | UniProt Q9Y3I0 | 0.995 ± 0.022 | 0.998 ± 0.047 | 1.01 ± 0.034 | 1.03 ± 0.03 | 1.03 ± 0.029 | 1.05 ± 0.046
8 | GTF3C3 (UniProt Q9Y5Q9) | 1.02 ± 0.023 | 1.01 ± 0.02 | 1.02 ± 0.022 | 0.938 ± 0.042 | 0.916 ± 0.042 | 0.905 ± 0.024
9 | UniProt Q9Y4P8 and related entries | 0.996 ± 0.064 | 0.958 ± 0.017 | 1.01 ± 0.057 | 1.03 ± 0.067 | 1.05 ± 0.067 | 1.02 ± 0.051
10 | UniProt Q9Y6J0 and related entries | 0.976 ± 0.031 | 0.995 ± 0.012 | 0.987 ± 0.025 | 0.986 ± 0.029 | 0.95 ± 0.023 | 1.01 ± 0.029
11 | TRAF6 (UniProt Q9Y4K3) | 0.957 ± 0.04 | 0.907 ± 0.029 | 0.954 ± 0.055 | 0.937 ± 0.024 | 0.931 ± 0.029 | 0.912 ± 0.014
12 | CD2AP (UniProt Q9Y5K6) | 1.03 ± 0.025 | 1.06 ± 0.049 | 1.01 ± 0.021 | 0.987 ± 0.053 | 0.961 ± 0.036 | 0.978 ± 0.023
13 | UniProt Q9Y450 and related entries | 0.988 ± 0.035 | 1.01 ± 0.025 | 1 ± 0.042 | 1.03 ± 0.035 | 1.03 ± 0.037 | 1.05 ± 0.038
14 | UniProt Q9Y4B5 and related entries | 1.01 ± 0.022 | 1 ± 0.0039 | 0.984 ± 0.027 | 0.992 ± 0.0033 | 1 ± 0.015 | 0.995 ± 0.012
15 | R4GN35 and related entries (UniProt Q5VZ89) | 0.992 ± 0.016 | 0.965 ± 0.011 | 1.018 ± 0.0068 | 0.971 ± 0.037 | 0.973 ± 0.041 | 0.958 ± 0.027
16 | UniProt Q9Y3I1 and related entries | 0.967 ± 0.023 | 0.962 ± 0.018 | 0.958 ± 0.022 | 0.927 ± 0.014 | 0.9811 ± 0.0075 | 0.9607 ± 0.0071
17 | HEBP2 (UniProt Q9Y5Z4) | 0.978 ± 0.012 | 0.9687 ± 0.0064 | 0.952 ± 0.023 | 0.957 ± 0.021 | 0.964 ± 0.018 | 0.926 ± 0.042
18 | TRAPPC1 (UniProt Q9Y5R8) | 0.994 ± 0.048 | 0.918 ± 0.01 | 1.04 ± 0.026 | 1.02 ± 0.066 | 1.09 ± 0.025 | 0.9883 ± 0.0018
19 | CLIC4 (UniProt Q9Y696) | 1.03 ± 0.013 | 1.05 ± 0.087 | 1.07 ± 0.057 | 1.1 ± 0.069 | 1.09 ± 0.071 | 1.11 ± 0.1
20 | YTHDF2 (UniProt Q9Y5A9) | 1.06 ± 0.021 | 1.05 ± 0.017 | 1.02 ± 0.042 | 1.03 ± 0.044 | 1 ± 0.043 | 1.03 ± 0.072
21 | LSM5 (UniProt Q9Y4Y9) | 1.07 ± 0.06 | 1.1 ± 0.048 | 1.09 ± 0.074 | 0.964 ± 0.016 | 0.9747 ± 0.0087 | 0.963 ± 0.086
22 | PSAT1 (UniProt Q9Y617) | 0.976 ± 0.02 | 0.898 ± 0.032 | 0.964 ± 0.034 | 1.05 ± 0.096 | 1.05 ± 0.074 | 1.02 ± 0.069
23 | UniProt Q9Y3P8 | 1.04 ± 0.034 | 1.04 ± 0.021 | 1 ± 0.033 | 1.01 ± 0.025 | 1 ± 0.044 | 0.974 ± 0.021
24 | SH3BP1 (UniProt Q9Y3L3) | 0.993 ± 0.02 | 1 ± 0.018 | 1.01 ± 0.031 | 1.03 ± 0.03 | 1 ± 0.019 | 1.03 ± 0.0093
25 | NUBP2 (UniProt Q9Y5Y2) | 0.995 ± 0.014 | 0.948 ± 0.061 | 0.985 ± 0.022 | 1.01 ± 0.037 | 1.03 ± 0.018 | 1.03 ± 0.014
26 | UniProt Q9Y3L5 | 1.03 ± 0.052 | 1.03 ± 0.057 | 1.04 ± 0.059 | 1.04 ± 0.033 | 1.01 ± 0.047 | 1.01 ± 0.051
27 | MRPS18B (UniProt Q9Y676) | 0.939 ± 0.02 | 0.971 ± 0.066 | 0.892 ± 0.054 | 0.921 ± 0.057 | 0.922 ± 0.087 | 0.889 ± 0.1
28 | RBM19 (UniProt Q9Y4C8) | 1.04 ± 0.024 | 1.12 ± 0.069 | 1.15 ± 0.031 | 1.18 ± 0.031 | 1.21 ± 0.033 | 1.3 ± 0.013
29 | R4GMR5 and related entries (UniProt P48556) | 0.872 ± 0.015 | 0.824 ± 0.047 | 0.841 ± 0.068 | 0.864 ± 0.051 | 0.894 ± 0.07 | 0.859 ± 0.094

2 entries from above, set out differently.
Row	Target	NP40-soluble protein abundance (concentration: 1mM)	NP40-soluble protein abundance (concentration: 2mM)	NP40-soluble protein abundance (concentration: 4mM)	NP40-soluble protein abundance (concentration: 6mM)	NP40-soluble protein abundance (concentration: 8mM)	NP40-soluble protein abundance (concentration: 10mM)
4	SEC23IP (UniProt Q9Y6Y8)	1.02 ± 0.021	0.989 ± 0.028	0.9881 ± 0.0077	0.965 ± 0.027	0.961 ± 0.037	0.951 ± 0.027
5	UniProt V9HW75	1.129 ± 0.011	1.26 ± 0.11	1.19 ± 0.043	1.17 ± 0.023	1.19 ± 0.013	1.15 ± 0.063
